Results published in paper PMC8783693.
These are yes or no findings as the source states them, for the method shown. In cells and extracts the contact can be indirect. Some binding calls cover weakened binding; strength is not graded here.

Sequences of proteins named here, by UniProt entry; tags and fusion partners are left off. Residues count along the entry.
UniProt P06733: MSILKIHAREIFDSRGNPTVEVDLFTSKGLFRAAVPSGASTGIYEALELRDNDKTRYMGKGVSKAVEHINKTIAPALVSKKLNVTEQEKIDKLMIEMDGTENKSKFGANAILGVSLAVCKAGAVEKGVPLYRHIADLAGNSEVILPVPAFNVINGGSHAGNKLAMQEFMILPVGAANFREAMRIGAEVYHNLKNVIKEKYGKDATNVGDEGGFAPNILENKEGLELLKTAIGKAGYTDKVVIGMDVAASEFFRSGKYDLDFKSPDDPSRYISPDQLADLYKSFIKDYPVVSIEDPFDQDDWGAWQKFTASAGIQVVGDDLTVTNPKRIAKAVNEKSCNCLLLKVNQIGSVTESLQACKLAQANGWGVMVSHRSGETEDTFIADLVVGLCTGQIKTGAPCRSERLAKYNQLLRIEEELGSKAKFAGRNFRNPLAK
UniProt Q03405, residues 23-305: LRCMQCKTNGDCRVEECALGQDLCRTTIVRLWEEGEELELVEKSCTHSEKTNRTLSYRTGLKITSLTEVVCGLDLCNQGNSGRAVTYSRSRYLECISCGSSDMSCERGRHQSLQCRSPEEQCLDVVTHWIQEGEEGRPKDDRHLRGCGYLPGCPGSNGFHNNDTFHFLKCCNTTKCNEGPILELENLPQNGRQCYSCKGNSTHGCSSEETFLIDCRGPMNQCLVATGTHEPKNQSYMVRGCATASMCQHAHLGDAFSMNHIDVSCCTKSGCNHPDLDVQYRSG

Target: enolase-1 (ENO) (human (endogenous in primary human lung fibroblasts)) (UniProt P06733)
Assay: co-IP; membrane fractions of fibroblasts treated with TGF-β1 with or without peptide E4, incubated overnight at 4°C with anti-ENO-1 antibody or isotype control; precipitated with protein G agarose beads for 1 hour at 4°C; uPAR and ENO detected by immunoblotting

With “urokinase plasminogen activator receptor (uPAR) (from UniProt Q03405 23-305)” the binding was “binds”.
